# Out of some 310,000 compounds screened, about 17,000 (5.5%) were called active. The shares of active, inactive and inconclusive entries below differ from those in the screen. The call rests on the fitted dose curve; in most records, active means well fitted inhibition curve with a large enough effect; inconclusive means small, poorly fitted or top-dose-only effect, or effect the other way; inactive means no such curve, though single readings can be large or run the other way. Where the call is inconclusive, the potency comes from a doubtful curve fit.
# The chains behind the UniProt entries cited, without tags or fusion partners. Where a name states a change or a piece, a line headed by the entry shows the natural chain unless it says otherwise.
# UniProt P51450: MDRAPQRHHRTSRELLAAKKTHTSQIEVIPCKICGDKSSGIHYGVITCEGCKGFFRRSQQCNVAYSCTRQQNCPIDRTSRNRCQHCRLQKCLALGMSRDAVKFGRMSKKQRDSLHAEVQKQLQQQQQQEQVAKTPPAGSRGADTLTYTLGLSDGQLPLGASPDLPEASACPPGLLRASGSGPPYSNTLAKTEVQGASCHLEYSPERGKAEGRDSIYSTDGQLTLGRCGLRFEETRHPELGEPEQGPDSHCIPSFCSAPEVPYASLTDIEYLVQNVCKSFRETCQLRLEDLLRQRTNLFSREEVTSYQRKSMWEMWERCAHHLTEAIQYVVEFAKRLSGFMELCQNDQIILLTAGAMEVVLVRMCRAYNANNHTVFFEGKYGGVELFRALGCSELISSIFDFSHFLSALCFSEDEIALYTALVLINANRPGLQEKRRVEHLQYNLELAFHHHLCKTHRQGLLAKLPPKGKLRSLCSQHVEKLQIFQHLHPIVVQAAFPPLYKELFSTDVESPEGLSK
# Target: Nuclear receptor ROR-gamma (Mus musculus) (UniProt P51450)
# Experiment: qHTS for inhibitors of ROR gamma transcriptional activity; further: nearly all actives have a fitted effect of over 60% in size
# Conditions: Drosophila S2 Gal4-RORgamma UAS-luciferase reporter, 20 h; activity change, negative = inhibition: at 53.6 µM (top of the series)
# Summary of the method: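 In this cell-based reporter format, copper sulfate (700 uM final) drives Gal4–ROR gamma fusion expression from a metallothionein promoter in Drosophila Schneider cells; compounds preincubated 1 hr, reporter read after 20 hr at ambient temperature.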
# On the % scale 0 is the no-effect control and ±100 the full control effect; potency means the concentration at half of the fitted maximal effect.
Compound,Potency,"activity change, negative = inhibition"
Cc1cccc(C(=O)NC(=O)Nc2c(C)cc(C)nc2C)c1,"inconclusive: 11.2 µM [activator, partial curve]",–
O=C(Nc1ccc(O)c2c(=O)cc(-c3cccc(Cl)c3)oc12)c1ccccc1Cl,–,inactive: -9.19%
CC(C)(C)n1nnnc1C(c1cccnc1)N(Cc1ccccc1)Cc1cccs1 (stereo not given),"inconclusive: 35.5 µM [inhibitor, single point]",–
CN1CCN(C2=C(Cl)C(=O)N(c3cccc(Cl)c3)C2=O)CC1,–,inactive: -30.5%
O=C(CSc1ccc(-c2cccnc2)nn1)Nc1ccccc1F,–,inactive: -12.5%
COC(=O)C1C(=O)C2=C(CC1C)NC(C)=C(C(=O)OC1CCCCC1)C2c1ccc(N(C)C)cc1 (stereo not given),"inconclusive: 0.631 µM [activator, full curve, poor fit]",–
CCOc1ccc2nc(NC(=S)N(C)C)sc2c1,active: 1 µM,–
COc1ccc(NC2=C(Cl)C(=O)N(CCc3ccccc3)C2=O)cc1,"inconclusive: 11.2 µM [activator, partial curve]",–
COCCN(C(=S)Nc1ccccc1OC)C(C)c1cccs1 (stereo not given),"inconclusive: 15.8 µM [inhibitor, single point]",–
Cc1c(C)c2ccc(OC(C)C(=O)NCCCN3CCOCC3)c(C)c2oc1=O (stereo not given),–,inactive: -26.7%
CCC(C)Sc1nc2ccccc2n1CC(=O)O (stereo not given),active: 12.6 µM,–
COc1ccc(NC(=O)Nc2cc(C)cc(C)c2)cn1,"inconclusive: 4.47 µM [activator, single point]",–
O=C(Nc1ccccc1)Nc1cccn(Cc2c(F)cccc2Cl)c1=O,"inconclusive: 12.6 µM [activator, single point]",–
O=C(Nc1cccc(C(F)(F)F)c1)c1cccnc1NCCc1ccccc1,"inconclusive: 35.5 µM [inhibitor, single point]",–
CN(C)c1nc(NCc2ccccc2)nc(N/N=C/c2ccc(Cl)cc2Cl)n1,active: 2.24 µM,–
COc1ccccc1Cn1c(=O)oc2ccc(C)cc21,–,inactive: -15.9%
O=C(N/C=N/OCc1ccc(Cl)cc1Cl)NOCc1c(Cl)cccc1Cl,"inconclusive: 22.4 µM [inhibitor, single point]",–
CCOC(=O)C1=C(C)N=C2SCCC(=O)N2[C@@H]1/C=C/c1ccccc1,"inconclusive: 10 µM [inhibitor, partial curve]",–
O=C(CCc1ccccc1)Nc1ncn[nH]1,–,inactive: -5.36%
Cc1noc(/C=C/N(C)C)c1S(=O)(=O)N(C)Cc1ccc(F)cc1,–,inactive: -25.8%
Cc1cccc(N2CC(C(=O)Nc3nc4ccc(S(C)(=O)=O)cc4s3)CC2=O)c1C (stereo not given),"inconclusive: 22.4 µM [activator, single point]",–
Cc1oc(-c2ccccc2F)nc1CSCC(=O)NCc1ccc2c(c1)OCO2,"inconclusive: 14.1 µM [activator, single point]",–
Oc1ccc2ccccc2c1C=NCc1cn2ccsc2n1,"inconclusive: 15.8 µM [inhibitor, single point]",–
Cc1cc(Br)cc2c(C(=O)NCC3CCCO3)cc(-c3cccs3)nc12 (stereo not given),"inconclusive: 35.5 µM [inhibitor, single point]",–

Compound,Potency,"activity change, negative = inhibition"
CCOC(=O)N1CCC(Nc2cc(C)nc3c(-c4ccccc4OC)c(C)nn23)CC1,"inconclusive: 10 µM [activator, partial curve]",–
O=S(=O)(Nc1nccs1)c1cnc(Cl)c(Br)c1,"inconclusive: 15.8 µM [inhibitor, single point]",–
CC1(C)Cc2c(sc(NC(=O)C(=O)NCC3CCCO3)c2C(N)=O)CO1 (stereo not given),–,inactive: -7.07%
COc1ccc(-n2nc(C(=O)NCC(=O)NC3CCCC(C)C3C)c3ccccc3c2=O)cc1 (stereo not given),"inconclusive: 17.8 µM [activator, single point]",–
CCOC(=O)c1sc(NC(=O)CCN2CCCCCC2)c(C(=O)OCC)c1C,active: 11.2 µM,–
COc1cccc(C(=O)N2CCN(C(=O)C3CC3)CC2)c1,–,inactive: 12.9%
COc1ccccc1CNc1ncncc1-c1ccccc1OC,"inconclusive: 35.5 µM [inhibitor, single point]",–
COc1ccc(CCNC(=S)NC(=O)c2cc(OC)c(OC)c(OC)c2)cc1OC,–,inactive: -40.3%
CCN(CC)CC(=O)Nc1sc(C)c(C)c1C(=O)c1ccc(C)cc1,active: 11.2 µM,–
CC(C)Oc1ccc(/C=C(/NC(=O)c2ccccc2)C(=O)NCCC(=O)O)cc1,active: 11.2 µM,–
COc1ccc(C(=O)N2C(=S)NC(=O)/C2=C\c2ccc(C)cc2)cc1,"inconclusive: 17.8 µM [inhibitor, single point]",–
CC(C)(C)c1cnnn1-c1ccc(NC(=O)c2ccc3c(c2)OCO3)cc1,"inconclusive: 20 µM [activator, single point]",–
COc1ccccc1N1CCN(Cc2cc(Br)c(O)c3ncccc23)CC1,active: 1.12 µM,–
Clc1ccc(CSc2nccn2Cc2ccccc2)cc1,"inconclusive: 31.6 µM [inhibitor, single point]",–
COc1ccccc1NC(=O)c1ccc(C(=O)c2ccccc2)o1,"inconclusive: 14.1 µM [activator, single point]",–
CCOc1ccc(N2C(=O)CC(N3CCN(c4ccc(Cl)cc4)CC3)C2=O)cc1 (stereo not given),–,inactive: -18.5%
Nc1ccccc1Nc1cccc(C(F)(F)F)c1,–,inactive: -4.43%
Cn1c(C2CCCCC2)nc2ccccc21,active: 11.2 µM,–
NC(=O)N1CCC2(CC1)NC(=O)N(c1ccccc1)N2,–,inactive: -42.1%
COc1ccc(/C=C/C(=O)NC(=S)NNC(=O)c2cc(OC)c(OC)c(OC)c2)cc1OC,"inconclusive: 2.24 µM [inhibitor, full curve]",–
CCN(CC)S(=O)(=O)c1cccc(-c2n[nH]c(=S)n2C)c1,"inconclusive: 15.8 µM [inhibitor, partial curve]",–
CN(C)S(=O)(=O)c1cccc(NC(=S)NN=C(Cc2ccccc2)Cc2ccccc2)c1,active: 12.6 µM,–
COc1ccc(NC(=S)NCCC2=CCCCC2)cc1OC,active: 2.51 µM,–
Cc1ccccc1-c1nc(CN2CCC(C(=O)NCc3ccco3)CC2)c(C)o1,–,inactive: -7.6%
COc1ccc(C)cc1NC(=O)c1nnn(Cc2cc(C)ccc2C)c1N,–,inactive: 23.6%

Compound,Potency,"activity change, negative = inhibition"
COCCNC(=O)c1onc(CSc2ccc(C(C)C)cc2)c1C(=O)O,–,inactive: -30%
CN(C)CC(CCCCC(CN(C)C)C(=O)c1ccccc1)C(=O)c1ccccc1 (stereo not given),–,inactive: -15.2%
O=C1CC(c2cccc(F)c2)SC(N(c2ccccc2)c2ccccc2)=N1 (stereo not given),"inconclusive: 15.8 µM [inhibitor, single point]",–
CC(=O)N1CCc2cc(Br)cc(S(=O)(=O)N3CCc4ccccc43)c21,"inconclusive: 28.2 µM [activator, single point]",–
CCOC(=O)c1nn(-c2ccc(OCC)cc2)c2nc(-c3ccco3)c(C#N)c(=O)n12,"inconclusive: 7.08 µM [activator, full curve]",–
CCOc1ccccc1/C=N/Nc1cc(C)nc2ccc(C)cc12,–,inactive: 1.4% [at 1.91 µM]
CN(c1ccccc1)S(=O)(=O)c1cc(C(=O)N2CCN(c3ccccn3)CC2)ccc1Cl,"inconclusive: 20 µM [activator, single point]",–
O=C(COc1ccc(Br)cc1Br)NC(=O)NC1CCCC1,"inconclusive: 12.6 µM [activator, partial curve]",–
Cc1cc(C)n(CC(C)NC(=O)c2cc(COc3ccc(F)c(F)c3)on2)n1 (stereo not given),"inconclusive: 7.08 µM [activator, partial curve]",–
Cc1ccc(S(=O)(=O)N2CCOCC2)cc1C(=O)NC1CCCCCC1,–,inactive: -0.255%
O=C(Nc1ccccc1C(=O)NCc1ccccc1)C1=CSCCO1,–,inactive: -1.57%
COc1cccc(NC(=O)CN(C)CC(=O)Nc2ccc(Cl)cc2[N+](=O)[O-])c1,"inconclusive: 25.1 µM [activator, single point]",–
CC(=O)c1ccc(-n2c(SCC(=O)c3c[nH]c4ccccc34)nc3ccccc3c2=O)cc1,active: 1.41 µM,–
Cc1cc(NC(=O)CSc2nc(N)c(NC(=O)c3ccco3)c(=O)[nH]2)no1,–,inactive: 8.92%
Cc1ccc(/C=C/C(=O)NC2=NCCS2)cc1,active: 11.2 µM,–
Cc1cc(C)nc(N(C#N)CN2C(=O)c3ccccc3S2(=O)=O)n1,active: 12.6 µM,–
COc1cccc(OCCc2c(C)n[nH]c2C)c1,"inconclusive: 20 µM [inhibitor, single point]",–
COc1ccc(CCC(C)NCC2CCCCC2)cc1 (stereo not given),"inconclusive: 3.98 µM [inhibitor, partial curve]",–
CC(=O)C1=C(O)CC(c2ccccc2)CC1=NCCc1c(C)[nH]c2ccccc12 (stereo not given),"inconclusive: 7.94 µM [activator, partial curve]",–
O=C(COc1ccc([N+](=O)[O-])cc1Cl)NCCc1ccccc1,"inconclusive: 12.6 µM [activator, partial curve]",–
CN(CCCC1CCCC1)C(=O)c1cc(COc2ccc(F)c(F)c2)on1,"inconclusive: 11.2 µM [activator, single point]",–
COC(=O)c1ccc2c(=O)[nH]c(CSc3nnc(C(F)(F)F)n3C)nc2c1,–,inactive: -8.93%
S=c1[nH]nc(CN2CCCCC2)n1Cc1ccccc1,active: 3.16 µM,–
Cc1ccc(OCC(O)CNCc2ccccc2)cc1C (stereo not given),–,inactive: -11.6%
COc1ccc(-c2nc3ccccc3c(C(=O)Nc3ccc(S(=O)(=O)Nc4cc(C)on4)cc3)c2C)cc1,"inconclusive: 11.2 µM [activator, single point]",–

# Quoted from the entries so far, 2 compounds:
Compound,Potency,"activity change, negative = inhibition"
Cc1ccc(OCC(O)CNCc2ccccc2)cc1C (stereo not given),–,inactive: -11.6%
COc1ccc(-c2nc3ccccc3c(C(=O)Nc3ccc(S(=O)(=O)Nc4cc(C)on4)cc3)c2C)cc1,"inconclusive: 11.2 µM [activator, single point]",–
